## Primary screen of a compound library

Protein sequences, listed by entry. Tags and fused reporters are not part of them.
UniProt E9BF75, entry or part of it: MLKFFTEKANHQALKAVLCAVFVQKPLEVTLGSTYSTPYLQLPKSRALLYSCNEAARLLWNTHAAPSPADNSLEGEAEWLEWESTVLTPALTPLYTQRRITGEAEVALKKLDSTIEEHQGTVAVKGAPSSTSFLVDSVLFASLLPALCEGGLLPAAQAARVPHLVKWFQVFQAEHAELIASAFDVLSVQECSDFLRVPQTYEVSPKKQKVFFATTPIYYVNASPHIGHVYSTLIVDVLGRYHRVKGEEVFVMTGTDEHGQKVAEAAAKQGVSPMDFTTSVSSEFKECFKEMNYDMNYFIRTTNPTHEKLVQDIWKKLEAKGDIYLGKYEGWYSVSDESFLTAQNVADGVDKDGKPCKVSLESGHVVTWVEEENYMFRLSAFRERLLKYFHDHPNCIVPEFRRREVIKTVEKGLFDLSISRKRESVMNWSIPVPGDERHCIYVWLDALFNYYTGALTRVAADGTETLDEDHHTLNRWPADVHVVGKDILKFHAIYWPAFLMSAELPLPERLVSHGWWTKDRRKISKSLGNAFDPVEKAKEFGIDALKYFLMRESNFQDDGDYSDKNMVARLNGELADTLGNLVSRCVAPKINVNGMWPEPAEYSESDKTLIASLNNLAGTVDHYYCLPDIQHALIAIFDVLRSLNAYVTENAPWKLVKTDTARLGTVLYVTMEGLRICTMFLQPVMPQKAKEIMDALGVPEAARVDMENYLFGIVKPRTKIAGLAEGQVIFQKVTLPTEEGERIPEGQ

Measurements from “University of Dundee, Small-Polar-MMV Screening Library” (2021), ChEMBL document CHEMBL3988442.

Results are percentages, as filed. The controls that fix the scale are not given in the record; negative values are as filed. Compounds were drawn at random from those tested, without regard to their results. A dash means the value is not listed here; it may have been measured.

A: 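Primary screen of methionyl-tRNA synthetase; the read-out is not stated. Target: Methionyl-tRNA synthetase (putative), Leishmania donovani (UniProt E9BF75). The test concentration is not given. Values are per cent inhibition. Size under these conditions: about 68,000 compounds, about 24 of them at 50% or above in at least one test.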
B: 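Assay on Mycobacterium tuberculosis, filed only as a heat shock assay from Cornell; the read-out is not stated. The concentration is filed as 10 mM, unlikely as a test dose, so the dose is not known. Higher reads as stronger inhibition (inferred: compounds with an IC50 in retests scored well above the rest). Size under these conditions: about 69,000 compounds, about 930 of them at 50% or above in at least one test.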

SMILES | A | B
Cc1ccc(CN2CCC3(C2)C(=O)N(CC2CC2)c2ccccc23)s1.O=C(O)C(F)(F)F (stereo not given) | - | 22.05
CNc1ccnc(N2C[C@@H]3CC[C@H](C2)N(CCOC)C3=O)n1 | -4.819 | -
CCN(Cc1ccoc1)C(=O)NC1CCN(CC2CC2)C1 (stereo not given) | 20.92 | 9.376
Cc1ncsc1-c1nnc(C2CCN(Cc3ccccc3Cl)CC2)o1 | 4 | -20.63
Cc1ccsc1C(=O)N1CC(C(=O)N2CCOCC2)C2(CCOCC2)C1 (stereo not given) | 3.922 | -12.26
O=C(O)C(F)(F)F.O=C1N(c2ccsc2)CCC12CCCN(CC1CC1)C2 (stereo not given) | - | 5.234
CCN1C[C@H]2CCN(C(=O)Nc3ccccc3C)CC[C@H]2S1(=O)=O | 0.5556 | -
COc1cc(O)cc2c1C(=O)CC(c1ccc(O)cc1)O2 (stereo not given) | 2.198 | 1.034
Cn1cc(CN2CCc3c(COCC4CC4)cncc3C2)cn1.O=C(O)C(F)(F)F.O=C(O)C(F)(F)F | - | -13.38
CC(OCC(F)(F)F)C(=O)NCCN(C)C (stereo not given) | 8.362 | -13.87
CCN1CCn2c(C)cnc2C12CCN(C(=O)c1ccc(Cl)cc1)CC2.O=C(O)C(F)(F)F | - | 20.83
CC(NC(=O)CCS(=O)(=O)C1CCCC1)c1nc(-c2ccccc2)c[nH]1 (stereo not given) | 11.49 | -19.33
CC(C)CNC(=O)N1C[C@@H]2CCCN[C@@H]2C1 | 9.444 | -
Cn1cnc2c1CCN(Cc1cccc(OCC(N)=O)c1)C2 | 11.66 | -2.28
CCn1c(C2CCCN2Cc2noc(C(C)(C)C)n2)nc2ccccc21 (stereo not given) | 19.2 | 50.31
CC(C)SCC(=O)N1CCCn2nc(C(=O)Nc3ccccc3)cc2C1 | 2.681 | -21.85
CS(=O)(=O)NC1CCN(C(=O)c2coc(CN3CCOCC3)c2)CC1 | 16.25 | -17.12
O=C(O)C(F)(F)F.[H][C@]12CC[C@@]3(N=C(CC)N(C)C3=O)[C@@]1([H])CN(Cc1ccc(F)cc1)C2 | - | 6.299
CN(C)c1ccc(CC(=O)N[C@@H]2CCNC[C@H]2O)cc1 | 13.01 | -4.971
[H][C@@]12CCN(Cc3ccncc3)C[C@@]1([H])O[C@H](C)C2 | - | -23.4
Cc1nc(-c2ccccc2)ccc1C(=O)N1CCN(CCO)CC1 | 11.55 | -0.8961
CSCCNC(=O)c1coc(COc2ccc(F)cc2)n1 | 1.873 | -3.527
CCN1C[C@@H]2CN(C(=O)c3ccsc3)C[C@@H]2C1=O | 14.81 | -
CC(C)c1noc(CCCC(=O)N2CCN(Cc3ccccn3)CC2)n1 | 13.97 | -11.58
CCn1cc(CN2CCCN(C(=O)c3ccc(C)nc3)CC2)cn1 | 9.945 | -4.139
CCCc1nnc(N2CCC(N3CCCC3)CC2)o1 | 4.878 | -4.154
O=C(O)c1cccnc1CN1CCCC1CCc1ccccc1 (stereo not given) | 20.1 | -1.506
COc1cc(C(=O)N2CCCC(n3ccnc3)C2)cc2c1OCCO2 (stereo not given) | 21.49 | -4.758
CSc1ncccc1C(=O)NC(C)c1cccc(N2CCOC2=O)c1 (stereo not given) | 16.72 | 8.413
CCCn1nnnc1CSc1nccn1C | 6.803 | -13.03
c1ccc(-c2nnc3ccc(N4CCC5(CCOC5)C4)nn23)cc1 (stereo not given) | 17.28 | -24.18
O=C(c1cc[nH]n1)N1CCCC1c1ccccn1 (stereo not given) | 12.9 | 15.62
COc1cccc2c1N(Cc1nc(C3CC3)no1)CCC2 | 7.853 | -12.86
CCOc1ccc(N(CCC#N)C(=O)c2ccc(OC)nc2)cc1 | -5.292 | -2.319
Cc1[nH]ncc1C(C)NCc1ccc(F)cc1 (stereo not given) | 20.14 | -6.794
CC(C)(C)c1n[nH]c(C2CN(CCc3ccncc3)CCO2)n1 (stereo not given) | 8.906 | 12.04
CN(Cc1ncc[nH]1)c1nc(-c2ccccn2)nc2c1CCNCC2 | 5.376 | -29.92
COc1cc(Cl)ccc1C(=O)NCc1n[nH]c(C)n1 | 14.65 | 2.115
Cc1ncc(-c2ccnc(SCCN)n2)c(-c2ccco2)n1 | 7.524 | -25.44
COc1cc(CNCc2ccnc(N3CCOCC3)c2)cc(Cl)c1OC | 13.73 | 13.91
NCc1cnn(-c2ccccc2C(=O)NCc2ccncc2)c1 | 9.247 | -10.83
O=C([C@@H]1CCO[C@@H]2CCN(Cc3cccnc3)C[C@H]21)N1CCCCO1 | 17.01 | -
O=C(O)C(F)(F)F.[H][C@]12CCCC(OCc3cccnc3)[C@@]1([H])CN(C(=O)c1ccoc1C)C2 (stereo not given in full) | - | -9.612
Nc1cc(C(=O)N2CCC(Oc3cccc(C(F)(F)F)c3)CC2)ccn1 | 17.33 | -3.908
Cc1c(NC(C)C(C)C)cccc1C(=O)NCc1nnc(C)n1C (stereo not given) | -1.397 | -15.98
Cc1nn(C)cc1C(C)Nc1ncnc2sccc12 (stereo not given) | 0 | 0.2
CCn1cc(C(=O)N2C[C@H]3C[C@H](Oc4ccccc4)C[C@H]3C2)cn1 | 9.969 | -
c1ccc(CN2CCC3(CC2)Nc2ccccc2CO3)cc1 | 19.24 | -15.31
CCN1CC(=O)NCC12CCN(C(=O)c1ccco1)C2.O=C(O)C(F)(F)F (stereo not given) | - | 9.624
O=C(NCCCOC1CCCCC1)C1NCCc2[nH]cnc21 (stereo not given) | - | -13.99
CC(C)Oc1ncccc1CNC(=O)NC(C)c1cccs1 (stereo not given) | 11.15 | -2.052
O=C(c1cc2ccccc2c(=O)[nH]1)N1CCN(CCO)CC1 | 5.744 | 3.252
CCn1ncc(CNC(=O)c2cn(CCC3CCCCN3)nn2)c1C (stereo not given) | 15.84 | 12.11
CC(C)N(C)Cc1nnc2n1CCN(Cc1ccncc1)CC2.O=C(O)C(F)(F)F.O=C(O)C(F)(F)F.O=C(O)C(F)(F)F | - | -15.4
CCc1nc(C2CCCN2C(=O)c2cc3c(s2)CCC3)no1 (stereo not given) | 27.37 | -0.5513
COc1cc(N2CCC3(CCCN(C(=O)c4cccnc4)C3)C2)ncn1.O=C(O)C(F)(F)F (stereo not given) | - | -26.08
CC1c2ncc(COc3cccnc3)n2CCN1C(=O)C1=CCCCC1 (stereo not given) | 16.43 | -
Cc1nn(CC(=O)O)c(C)c1NS(=O)(=O)c1cccc2ccccc12 | 18.32 | 11.34
Cc1nccn1CCC1CCCCN1Cc1ccc2c(c1)OCCO2 (stereo not given) | 12.85 | -48.51
CCC(O)CN1CCN(C(=O)c2cccn2Cc2ccncc2)CC1 (stereo not given) | 7.229 | -14.22
Cc1cnc(N2CCC3(CC2)CN(Cc2cccs2)CCO3)nc1.O=C(O)C(F)(F)F.O=C(O)C(F)(F)F | - | -6.091
O=C(C(CNCc1cccs1)c1ccccc1)N1CCOCC1 (stereo not given) | 7.357 | -32.32
CC1CCN(C(=O)C2(Cc3cc(C4CCOC4)no3)CCNCC2)CC1 (stereo not given) | 18.99 | -
Cc1ccc(-c2ncc(C(=O)N3CCCC(CCN)C3)c(O)n2)cc1 (stereo not given) | 19.06 | -16.55
O=C(NCc1csc(Br)c1)N1CCOCC1 | 13.65 | -17.97
[H][C@@]12CCN(C(=O)NC(C)C)[C@@]1([H])CC(=O)N2Cc1cccnc1 | - | -13.45
O=C(COC[C@@]12CCC[C@@H]1CN(C1CCC1)C2)N1CCCC1 | 11.37 | -
O=C(C1CCC1)N1CCC2(CCNCC2)C1 | -1.111 | -
COCCN(Cc1cccc(C#N)c1)Cc1nc(C)no1 | 22.1 | -14.61
Cc1cc(Cc2cccc(C(F)(F)F)c2)cc(C2CCCNC2)n1 (stereo not given) | 14.29 | 52.39
CN1CCc2c(C#N)c(NCc3ccccc3)n3cnnc3c2C1 | 2.332 | -14.55
CS(=O)(=O)Cc1cccc(C(=O)NCC2Cc3ccccc3O2)c1 (stereo not given) | 7.389 | 2.773
NC(=O)c1ccc(-n2ccnc2-c2cccc(O)c2)cc1N1CCCC1 | 17.1 | 2.92
CC(O)CN1CCC(CNCc2ccccc2C(F)(F)F)CC1 (stereo not given) | 4.211 | 3.498
CCC1c2ccsc2CCN1C(=O)NCc1cccnc1N(C)C (stereo not given) | 12.72 | -9.867
Cn1nc2c(cc1=O)CN(CC(=O)Nc1nccs1)CC2 | 18.23 | -6.597
CC(CN1CCOCC1)OC(=O)c1ccccc1Cl.Cl (stereo not given) | - | -27.27
Cc1cc(C(=O)NCc2ccc(-c3n[nH]cc3C(=O)N(C)C)cc2)on1 | 16.82 | -10.63
CN(Cc1ccncc1)c1cncc(Br)c1 | 17.34 | -1.321

Repeated from the top, 7 entries:

{"smiles": "Cc1ccc(CN2CCC3(C2)C(=O)N(CC2CC2)c2ccccc23)s1.O=C(O)C(F)(F)F", "stereo": "stereo not given", "B": 22.05}
{"smiles": "CNc1ccnc(N2C[C@@H]3CC[C@H](C2)N(CCOC)C3=O)n1", "A": -4.819}
{"smiles": "CCN(Cc1ccoc1)C(=O)NC1CCN(CC2CC2)C1", "stereo": "stereo not given", "A": 20.92, "B": 9.376}
{"smiles": "Cc1ncsc1-c1nnc(C2CCN(Cc3ccccc3Cl)CC2)o1", "A": 4, "B": -20.63}
{"smiles": "Cc1ccsc1C(=O)N1CC(C(=O)N2CCOCC2)C2(CCOCC2)C1", "stereo": "stereo not given", "A": 3.922, "B": -12.26}
{"smiles": "O=C(O)C(F)(F)F.O=C1N(c2ccsc2)CCC12CCCN(CC1CC1)C2", "stereo": "stereo not given", "B": 5.234}
{"smiles": "CCN1C[C@H]2CCN(C(=O)Nc3ccccc3C)CC[C@H]2S1(=O)=O", "A": 0.5556}